A short description of this assay: qHTS Assay to Find Inhibitors of Chronic Active B-Cell Receptor Signaling. The conditions noted are these: ABC-DLBCL IkBa-CBG/CBR reporter, luminescence ratio (green luciferase fused to IkBa over red control in TMD8 lymphoma cells), 4 h. The gist of the method: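 TMD8 human ABC-DLBCL cells with doxycycline-inducible IκBα–green luciferase fusion and unfused red luciferase, in 0.5% FBS medium; compounds up to 46 uM, 4 h at 37C. Green/red luminescence ratio, filter-overlap corrected, fitted to concentration-response curves.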
On the technique in general: In qHTS, concentration-response curves come from the screen itself.

Where [1] appears, read: measured here: CBR red luminescence, cell number.

Some of the results follow. Further columns of the screen follow, without active or inactive calls. Compounds called inactive in the main read-out are mostly missing here. Words in brackets tell the shape of the fitted curve; partial curves, single points and poor fits give uncertain potencies.

The AC50 is the concentration giving half of the maximal activity seen. For `Cc1cc(-c2ccc(C)c(S(=O)(=O)NCc3cccc(Br)c3)c2)on1`, the AC50 under setting [1] was 20 µM [falling, partial curve, poor fit]. Regarding `COc1ccc(N(C)S(=O)(=O)c2cccc(C(=O)Nc3nc4ccccc4[nH]3)c2)cc1`, the AC50 under setting [1] was 35.5 µM [falling, single point]. Take `N#Cc1cn(CC(=O)N2CCCC2)c2ccccc12`: the AC50 under setting [1] is 29.1 µM [falling, single point]. For the compound `CC(C)CCNc1nc2c(c(=O)n(Cc3cccc(F)c3)c(=O)n2C)n1C`, the AC50 under setting [1] is 25.1 µM [falling, single point].

For `O=C(/C=C/c1ccccc1)c1ccccc1`, under setting [1], the AC50 was 1.26 µM [falling, full curve, poor fit]. As for `O=C(O)c1c(C(=O)O)c(-c2ccc(Cl)c(Cl)c2)n2c1CSC2`, the AC50 under setting [1] is 22.4 µM [falling, single point]. For the compound `O=C(O)c1cc(NN=C2CCN(Cc3ccccc3)CC2)ccc1Cl`, under setting [1], the AC50 is 11.2 µM [falling, partial curve]. Same read-out and setting: the figure for `O=C(CCl)Nc1ccc(S(=O)(=O)NC2=NCCCCC2)cc1` is 5.8 µM [falling, partial curve, poor fit]; for `O=C(Nc1nc2ccccc2[nH]1)Nc1ccccc1F` it is 10 µM [falling, partial curve]. On to `CC(C)Nc1nc(Cl)nc(NNC(=O)C(C)Oc2ccccc2)n1` (centres undefined), for which the AC50 under setting [1] is 15.8 µM [falling, single point]. As for `Cc1ccc(NC(=O)Cc2cccs2)cc1Cl`, the AC50 under setting [1] is 0.501 µM [rising, full curve, poor fit]. Regarding `Cc1c(C#N)c2ccccc2n1CC(=O)N1CCCc2ccccc21`, the AC50 under setting [1] is 0.731 µM [falling, full curve, poor fit].

As to `Cc1cccc(-n2nc(C(=O)c3ccco3)cc(-c3nc4ccccc4[nH]3)c2=N)c1`, the AC50 is 0.731 µM [rising, full curve, poor fit] under setting [1] and 2.91 µM [falling, partial curve, poor fit] (measured here: IkBa-CBG green luminescence).

With `Cc1ccc(Cl)cc1NC(=O)COC(=O)CN1C(=O)C2CCCCC2C1=O` (centres undefined), the AC50 under setting [1] is 8.2 µM [rising, partial curve, poor fit]. As to `CCOC(=O)/C=C/c1cnn(-c2ccccc2)c1`, under setting [1], the AC50 was 0.146 µM [rising, full curve, poor fit].

As for `CCOc1nnc(C)c2c(C)n(-c3ccc(Cl)cc3)nc12`, under setting [1], the AC50 is 28.2 µM [rising, single point].

Consider `CCn1cc(C(=O)NCCC(=O)NCCO)c(=O)c2cc3c(cc21)OCO3`, for which, under setting [1], the AC50 was 6.31 µM [falling, single point]. For `CC(C)(C)c1nnc(NC(=O)C2CCN(c3ncccn3)CC2)s1`, under setting [1], the AC50 is 6.51 µM [falling, single point].
